These are yes or no findings as the source states them, for the method shown. Binding seen in cells or lysates may run through a third protein. Some entries that bind do so weakly or less than the wild type.

Sequences of proteins named here, by UniProt entry; tags and fusion partners are left off.
UniProt O15550: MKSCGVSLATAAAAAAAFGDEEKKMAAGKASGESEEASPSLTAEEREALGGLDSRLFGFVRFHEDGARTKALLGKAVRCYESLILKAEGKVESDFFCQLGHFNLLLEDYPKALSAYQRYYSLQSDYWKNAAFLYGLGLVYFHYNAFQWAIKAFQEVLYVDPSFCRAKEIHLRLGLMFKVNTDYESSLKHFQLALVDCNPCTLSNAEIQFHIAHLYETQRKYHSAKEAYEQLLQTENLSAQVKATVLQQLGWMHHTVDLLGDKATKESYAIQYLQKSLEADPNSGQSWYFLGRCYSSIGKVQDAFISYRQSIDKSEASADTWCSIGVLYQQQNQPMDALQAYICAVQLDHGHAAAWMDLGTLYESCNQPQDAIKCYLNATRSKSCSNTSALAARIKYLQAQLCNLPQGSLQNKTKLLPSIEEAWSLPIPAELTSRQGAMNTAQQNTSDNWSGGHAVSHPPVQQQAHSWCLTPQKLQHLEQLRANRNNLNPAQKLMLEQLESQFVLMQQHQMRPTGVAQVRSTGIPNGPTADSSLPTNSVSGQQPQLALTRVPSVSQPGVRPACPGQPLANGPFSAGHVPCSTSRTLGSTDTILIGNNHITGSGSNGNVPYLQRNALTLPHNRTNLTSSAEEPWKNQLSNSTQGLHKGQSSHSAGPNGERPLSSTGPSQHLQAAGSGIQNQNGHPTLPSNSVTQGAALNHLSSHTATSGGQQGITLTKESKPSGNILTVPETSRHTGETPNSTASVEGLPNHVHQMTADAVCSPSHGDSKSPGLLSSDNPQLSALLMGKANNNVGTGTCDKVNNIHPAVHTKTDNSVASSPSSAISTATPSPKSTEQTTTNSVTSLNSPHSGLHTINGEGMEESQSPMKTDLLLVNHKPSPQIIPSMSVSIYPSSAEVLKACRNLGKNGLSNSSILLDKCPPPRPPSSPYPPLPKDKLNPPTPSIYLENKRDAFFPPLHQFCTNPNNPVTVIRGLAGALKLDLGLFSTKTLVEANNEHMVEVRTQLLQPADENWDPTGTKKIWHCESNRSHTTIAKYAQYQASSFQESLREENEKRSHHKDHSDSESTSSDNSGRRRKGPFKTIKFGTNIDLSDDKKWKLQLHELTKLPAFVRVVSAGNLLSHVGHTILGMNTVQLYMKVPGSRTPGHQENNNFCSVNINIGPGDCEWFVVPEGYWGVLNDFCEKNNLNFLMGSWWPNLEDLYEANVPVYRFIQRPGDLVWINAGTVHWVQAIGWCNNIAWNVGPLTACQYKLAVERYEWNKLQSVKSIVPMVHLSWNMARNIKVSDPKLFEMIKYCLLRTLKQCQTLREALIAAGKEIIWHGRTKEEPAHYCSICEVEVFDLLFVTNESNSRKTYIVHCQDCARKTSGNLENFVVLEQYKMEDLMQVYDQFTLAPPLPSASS
UniProt Q9Y508: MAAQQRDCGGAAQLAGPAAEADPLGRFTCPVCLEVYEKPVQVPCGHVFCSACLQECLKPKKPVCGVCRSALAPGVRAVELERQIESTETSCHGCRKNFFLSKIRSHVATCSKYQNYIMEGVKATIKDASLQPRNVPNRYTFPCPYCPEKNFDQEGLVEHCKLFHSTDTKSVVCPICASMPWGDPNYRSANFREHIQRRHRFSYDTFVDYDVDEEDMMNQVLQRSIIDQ

This is an account of results in paper PMC9253056.

For assay [1], the target named is UTX (ubiquitously transcribed tetratricopeptide repeat on chromosome X), overexpressed (human) (UniProt O15550). The experiment in a line: co-IP; HEK293T cells transfected with the indicated plasmids (overexpression); IP by anti-UTX or anti-HA; lysates incubated with antibodies and Dynabeads Protein G overnight at 4 °C; washed with pre-lysis buffer with additional 50 mM NaCl; immunoblotting.

Assay [2] concerns the target UTX, endogenous in HK-2 cells (human (endogenous in HK-2)) (UniProt O15550). The assay is described as follows: co-IP; endogenous proteins in HK-2 cells (control cells), with or without PA treatment; anti-PHGDH IP in Fig. 8f; Dynabeads Protein G overnight at 4 °C; immunoblotting. For orientation: In western blotting, separated proteins are transferred to a membrane and probed.

As to “HA-tagged RNF114 (from UniProt Q9Y508 1-228)”, the binding result in assay [1] is recorded as “binds”.

For “RNF114, endogenous in HK-2 cells (from UniProt Q9Y508 1-228)”, in assay [2], the binding entry is recorded as “binds”.
